Where “and” joins values, the source holds several entries; their conditions need not be identical. Equal values may be shown once.
What was measured:
[1] = Personal care cleansing: mechanical shake foam test; conditions: 0.2% total surfactant actives, 25° C. tap water
[2] = Agricultural dispersant screening (sedimentation of pesticide powder in hard water); parameters: key to Sedimentation results at 1 h: Trace of sediment=“Tr”; flocked is also abbreviated as “FI.”
[3] = Chlorothalonil, test water 342 ppm
[4] = Chlorothalonil, test water 1000 ppm
[5] = Imidacloprid, test water 342 ppm
[6] = Imidacloprid, test water 1000 ppm
[7] = Tebuconazole, test water 342 ppm
[8] = Tebuconazole, test water 1000 ppm

Compound	Foam Height, 5 min ([1]; Castor oil added)	Foam Height, initial ([1]; Castor oil added)	Foam Height, 5 min ([1]; No oil added)	Foam Height, initial ([1]; No oil added)	Sedimentation results at 1 h ([2]; Atrazine, test water 342 ppm) [mL]	Sedimentation results at 24 h ([2]; Atrazine, test water 342 ppm) [mL]	Sedimentation results at 1 h ([2]; Atrazine, test water 1000 ppm) [mL]	Sedimentation results at 24 h ([2]; Atrazine, test water 1000 ppm) [mL]	Sedimentation results at 1 h [2, 3] [mL]	Sedimentation results at 24 h [2, 3] [mL]	Sedimentation results at 1 h [2, 4] [mL]	Sedimentation results at 24 h [2, 4] [mL]	Sedimentation results at 1 h ([2]; Diuron, test water 342 ppm) [mL]	Sedimentation results at 24 h ([2]; Diuron, test water 342 ppm) [mL]	Sedimentation results at 1 h ([2]; Diuron, test water 1000 ppm) [mL]	Sedimentation results at 24 h ([2]; Diuron, test water 1000 ppm)	Sedimentation results at 1 h [2, 5]	Sedimentation results at 1 h [2, 6]	Sedimentation results at 1 h [2, 7]	Sedimentation results at 1 h [2, 8]	other results
CCCCCCCCCCOS(=O)(=O)[O-].[Na+] [C5, sodium decyl sulfate, reference compound]	170 mL	170 mL	400 mL	400 mL	–	–	–	–	–	–	–	–	–	–	–	–	–	–	–	–	–
1 Mole Ethoxylated C10 Alcohol, Ammonium Sulfate [A10-5]	–	–	–	–	0.25	1.25 to 1.5	0.25	1 to 1.25	0.5 to 1.5	2 to 2.25	0.5 to 0.75	1 to 1.5	0.5	0.75 to 1	0.5 to 0.75	1 mL	flocked	flocked	flocked	flocked	–
7 Mole Ethoxylated C10 Alcohol, Sodium Sulfate [A10-15]	–	–	–	–	0.25 to 0.5	1.0 to 1.25	–	0.75 to 1.0	0.25 to 0.75	1.5 to 1.75	0.75 to 1.25	2	0.5 to 0.75	1.25 to 1.5	0.5 to 0.75	1.25 to 1.5 mL	flocked	flocked	flocked	flocked	–
3 Mole Ethoxylated C10 Alcohol, Ammonium Sulfate [A10-8]	–	–	–	–	–	1.25 to 1.5	0.25	1.5 to 1.75	0.25 to 0.5	1 to 1.25	0.25 to 0.75	1.75 to 2.0	0.5 to 0.75	1 to 1.25	0.5 to 0.75	1 to 1.25 mL	4.75 to 5.0 mL	4.5 to 4.75 mL	flocked	flocked	Sedimentation results at 24 h [2, 5]: Fl.; Sedimentation results at 24 h [2, 6]: Fl.
5 Mole Ethoxylated C10 Alcohol, Sodium Sulfate [A10-12]	–	–	–	–	0.25	1	0.25	1	0.75	1.75 to 2.0	0.75 to 1.0	1.5 to 1.75	0.5 to 0.75	1.5 to 1.75	0.75	Fl.	2.0 to 2.25 mL	2 mL	flocked	flocked	Sedimentation results at 24 h [2, 5]: Fl.; Sedimentation results at 24 h [2, 6]: Fl.
5 Mole Ethoxylated C12 Alcohol, Ammonium Sulfate [A12-11]	–	–	–	–	0.25 to 0.5	1.0 to 1.25	0.5 to 1.0	1.0 to 2.25	0.5 to 1.25	1.0 to 1.5	0.75 to 1.5	1.5 to 2.75	1.0 to 1.5	2.0 to 2.5	2.0 to 2.25	Fl.	1.0 to 1.25 mL	2.0-2.5; 2.0-2.5 mL	Tr	flocked	Sedimentation results at 24 h [2, 5]: 2.0 to 2.5 mL; Sedimentation results at 24 h [2, 6]: 2.0-2.5; 2.0-2.5 mL; Sedimentation results at 24 h [2, 7]: 3.0 to 3.25 mL
CCCCC=CCCCCCCCCOS(=O)(=O)[O-].[Na+] (mixture of isomers) [A14-2, C14 alcohol sodium sulfate]	320 mL	322 mL	430 mL	430 mL	–	–	–	–	–	–	–	–	–	–	–	–	–	–	–	–	–
sodium laureth sulfate [C6, reference compound]	360 mL	360 mL	420 mL	420 mL	–	–	–	–	–	–	–	–	–	–	–	–	–	–	–	–	–
15 Mole Ethoxylated C10 Alcohol, Ammonium Sulfate [A10-17]	–	–	–	–	0.25 to 0.75	1	0.25 to 0.5	1.0 to 1.25	0.75 to 1.25	1.75 to 2.0	0.5 to 0.75	1.25 to 1.5	0.5 to 0.75	1.0 to 1.25	1.25 to 1.5	Fl.	flocked	flocked	flocked	flocked	–
sodium laureth sulfate [C4, reference compound]	350 mL and 340 mL	350 mL and 340 mL	440 mL and 450 mL and 430 mL	440 mL and 450 mL and 430 mL	–	–	–	–	–	–	–	–	–	–	–	–	–	–	–	–	–
1 Mole Ethoxylated C10 Alcohol, Sodium Sulfate [A10-6]	–	–	–	–	0.25 to 0.5	1 to 1.25	0.25	1 to 1.25	0.5 to 0.75	1.25 to 1.5	0.75	1.5	0.25 to 0.5	0.5 to 1	0.5	1 mL	flocked	flocked	flocked	flocked	–
3 Mole Ethoxylated C12 Alcohol, Ammonium Sulfate [A12-8]	130 mL	420 mL	180 mL	440 mL	–	–	–	–	–	–	–	–	–	–	–	–	–	–	–	–	–
1 Mole Ethoxylated C12 Alcohol, Sodium Sulfate [A12-6]	200 mL	400 mL	500 mL	500 mL	–	–	–	–	–	–	–	–	–	–	–	–	–	–	–	–	–
C12 Alcohol Ammonium Sulfate [A12-2]	150 mL	310 mL	350 mL	390 mL	–	–	–	–	–	–	–	–	–	–	–	–	–	–	–	–	–
15 Mole Ethoxylated C10 Alcohol, Sodium Sulfate [A10-18]	–	–	–	–	0.25	1.0 to 1.25	0.25	1.5	0.25	1.5 to 1.75	0.25	1.0 to 1.25	0.5 to 0.75	1.25 to 1.5	1.0 to 1.25	Fl.	flocked	flocked	flocked	flocked	–
3 Mole Ethoxylated C10 Alcohol, Sodium Sulfate [A10-9]	–	–	–	–	0.25	0.75 to 1.25	0.25	1.5 to 2.0	0.75 to 1.0	1.5 to 1.75	0.25	0.5 to 0.75	0.5	1.0 to 1.25	0.5 to 0.75	1.25 to 1.75 mL	2.75 to 3.0 mL	3.5 to 3.75 mL	flocked	flocked	Sedimentation results at 24 h [2, 5]: Fl.; Sedimentation results at 24 h [2, 6]: Fl.
5 Mole Ethoxylated C10 Alcohol, Ammonium Sulfate [A10-11]	–	–	–	–	0.5	1.75	0.5	1.75 to 2	0.5 to 0.75	1.5 to 1.75	0.5	1 to 1.25	0.5	1	0.75	2 mL	flocked	flocked	flocked	flocked	–

Source: patent publication US11760889B2, “Unsaturated fatty alcohol derivatives from natural oil metathesis” (priority 2012, dated 2023)
